Drawing on patent publication US20240091360A1 (LENTIGEN TECHNOLOGY, published 2024), this text covers binding for one molecule.

Amino acid sequences for entries named in this document (tags omitted). A change or cut given only in a name is not applied to a line headed by its entry. Chains listed by the source or under a name are the forms on record and can include a tag or linker.
MSLN-His (R&D System) (Q13421, form named): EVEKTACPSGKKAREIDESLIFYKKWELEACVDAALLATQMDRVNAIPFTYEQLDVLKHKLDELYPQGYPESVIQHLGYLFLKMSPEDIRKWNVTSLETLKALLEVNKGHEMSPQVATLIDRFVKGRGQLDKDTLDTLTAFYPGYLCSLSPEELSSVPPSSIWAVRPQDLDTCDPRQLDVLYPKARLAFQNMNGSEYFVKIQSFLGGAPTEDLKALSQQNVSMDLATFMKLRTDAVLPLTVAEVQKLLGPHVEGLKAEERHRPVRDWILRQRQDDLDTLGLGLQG

This assay concerns the target MSLN-His (R&D System) (UniProt Q13421). Kind of assay: flow cytometry; transduced primary human T cells stained with MSLN-His, then anti-His APC.

These are yes or no findings as the source states them, for the method shown. Some binding calls cover weakened binding; strength is not graded here.

B1: CAR D0233 MSLN M1-4S ROR1 scFv9 IgG4 CD8 BBz (other)
chain: EVQLVQSGGGLVQPGGSLRLSCAASGFTFDDYAMHWVRQAPGKGLEWVSGISWNSGSIGYADSVKGRFTISRDNAKNSLYLQMNSLRAEDTALYYCAKDLSSVAGPFNYWGQGTLVTVSSGGGGSGGGGSGGGGSSSELTQDPAVSVALGQTVRITCQGDSLRSYYASWYQQKPGQAPVLVIYGKNNRPSGIPDRFSGSSSGNTASLTITGAQAEDEADYYCNSRDSSGNHLVFGGGTQLTVLGGGGGSGGGGSGGGGSGGGGSGGGGSQAAQVQLQQSGAEVKKPGSSVKVSCKASGGTFSSYAISWVRQAPGQGLEWMGWINPNSGGTNYAQRFQGRVTMTRDTSISTAYMELSRLRSDDTAVYYCASYNDAFDIWGQGTLVTVSSGGGGSGGGGSGGGGSNFMLTQPHSVSESPGKTVTISCTRSSGSIASNYVQWYQQRPGSAPTIVIYEDDQRPSGVPDRFSGSIDTSSNSASLTISGLQSEDEADYYCQSYEPGNGVFGGGTKVTVLAAAESKYGPPCPPCPIYIWAPLAGTCGVLLLSLVITLYCKRGRKKLLYIFKQPFMRPVQTTQEEDGCSCRFPEEEEGGCELRVKFSRSADAPAYQQGQNQLYNELNLGRREEYDVLDKRRGRDPEMGGKPRRKNPQEGLYNELQKDKMAEAYSEIGMKGERRRGKGHDGLYQGLSTATKDTYDALHMQALPPR
notes: Tandem CAR on transduced primary human T cells; also called MSLN-ROR1 scFv9-IgG4 hinge-CD8TM-41BB-CD3ζ; tandem CAR D0233
As for B1, the binding entry is “binds”.
